In all, about 33,000 sequences were measured (“E-score (-0.5 to 0.5)”: median about -0.016, highest 2% from about 0.3 on). This is one part of the list.
What follows are sequences tested against T1, Yer184c (UniProt P39961) (assay: PBM E-score (8-mer binding enrichment) (E-score (-0.5 to 0.5)); higher = stronger / more preferred TF binding). Details: protein concentration: 100 nM; construct: GST-full length.
T1 sequence: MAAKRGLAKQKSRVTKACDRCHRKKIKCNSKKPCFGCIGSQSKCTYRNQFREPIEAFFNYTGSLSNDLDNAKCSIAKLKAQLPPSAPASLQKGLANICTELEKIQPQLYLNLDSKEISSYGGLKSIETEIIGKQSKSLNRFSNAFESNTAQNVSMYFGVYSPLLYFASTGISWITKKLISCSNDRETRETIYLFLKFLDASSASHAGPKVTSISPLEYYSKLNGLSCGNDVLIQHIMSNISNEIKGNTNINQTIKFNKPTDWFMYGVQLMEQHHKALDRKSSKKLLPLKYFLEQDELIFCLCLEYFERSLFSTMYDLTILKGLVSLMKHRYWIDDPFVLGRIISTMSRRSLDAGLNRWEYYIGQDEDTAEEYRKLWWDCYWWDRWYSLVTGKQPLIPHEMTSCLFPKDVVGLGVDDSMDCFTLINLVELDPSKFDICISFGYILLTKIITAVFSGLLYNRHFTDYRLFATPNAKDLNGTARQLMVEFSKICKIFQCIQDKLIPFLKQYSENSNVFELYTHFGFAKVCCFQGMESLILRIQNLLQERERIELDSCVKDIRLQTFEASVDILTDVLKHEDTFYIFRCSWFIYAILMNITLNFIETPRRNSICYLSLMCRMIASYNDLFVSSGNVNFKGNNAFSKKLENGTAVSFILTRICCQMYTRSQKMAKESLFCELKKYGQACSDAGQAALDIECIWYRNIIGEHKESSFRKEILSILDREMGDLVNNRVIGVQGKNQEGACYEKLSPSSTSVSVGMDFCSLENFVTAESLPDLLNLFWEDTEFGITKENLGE
Procedure, shortened: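 Masliner-normalised scans of fluorescent anti-GST signal were the basis for scoring. That signal came from GST-tagged yeast transcription factors applied at about 100-200 nM to double-stranded universal all-10-mer Agilent arrays on fresh or once-stripped slides. Each ungapped eight-base word, pooled with its reverse complement, received an E-score from the Universal PBM Analysis Suite.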

Sequence	PBM E-score
GGCAGTCA	0.0622
CAAGGCTG	-0.28
GGTAACTA	0.186
CGGCCGGC	0.42
AACGTACA	-0.0551
CCTAAAAG	-0.278
CAGGAAAG	-0.104
ACGCGTGA	0.164
ACTGTGGC	-0.254
AGCTGTCA	-0.0639
AACGGCTC	0.215
CGCCTTAG	-0.117
CTCCACTC	-0.262
AACGCCCA	-0.119
CGTTCGGA	0.342
CACAGGGA	-0.2
CAGAAACC	0.0453
AGTGTATA	-0.254
CAATCTAA	0.0306
GAGTTCGC	-0.0587
ACTCCAGG	-0.197
GCTAGTAA	0.145
AGCGAGCT	0.129
CGCGTGAG	0.179
AGGTTCAC	0.0362

In a second layout: results already given

| Sequence | PBM E-score |
| --- | --- |
| GGCAGTCA | 0.0622 |
| AACGCCCA | -0.119 |
| AGTGTATA | -0.254 |
| ACTCCAGG | -0.197 |

Further results follow:

Sequence	PBM E-score
AAACTACT	0.0661
GACCGGTA	-0.0439
CCTAGCCC	-0.227
AAAGATGT	-0.0217
GAGGAGCC	-0.123
CGTTGATC	0.0316
CACAGGCA	-0.324
AACGGAGA	0.107
ATATCGCG	0.185
AGGGACAC	0.106
GGGGCTTA	-0.239
CAGTCTGC	-0.128
AGCGACGC	-0.0389
AAACACCG	0.164
ACGATAGC	-0.0143
ACTTTAGA	0.0855
ACTTCACG	-0.0539
ACGCATTC	-0.00313
CACAGATA	-0.0192
AATTCCGC	0.208
AAAAGCAT	0.15
ATGACCAC	-0.0626
GTGCGGAA	0.104
GATTCAAC	0.12
GGACCATA	0.0907

Sequence	PBM E-score
AGCTCTAT	-0.122
AGGTAAAC	0.222
CGTGCAAG	-0.0233
GAATCCAC	-0.00579
CATATCCG	0.277
CAACGTGC	-0.133
ATATAGCG	-0.113
AGCACCAT	-0.291
CTCCGTCC	-0.113
GACAGCGA	-0.0681
GGATCACC	-0.142
CTTAATTC	0.156
ATCACCCA	-0.147
GGTTATTA	0.132
GTACGACA	-0.0496
GGAATCCC	-0.0777
ACCTATTG	-0.16
GCGGCTCC	-0.0125
AGCACCCG	0.0236
CCGTGGCA	0.0867
CGCTTAGC	-0.0729
ACGAATAT	0.111
AGCTCCAG	-0.151
CATTTTAA	0.115
CCGCGATA	0.0621

Sequence	PBM E-score
GCCGGTTA	0.236
GCACGAGA	0.0219
CACGTGAC	-0.252
CAATTAGA	0.0277
CTCTTCAC	-0.192
CCATCGGC	0.0711
AATAATCA	0.124
GCTTTTGA	-0.0663
CATCATGG	-0.133
AAGTTATG	0.0764
ATCTACGA	-0.129
ACGTGAGT	-0.108
GAAGTATC	0.0935
ACTGGGAA	-0.0474
CAACCAGG	0.0397
TACGACCA	-0.14
AGAGCACA	-0.134
ACCTATAT	0.246
CCGGTAGA	0.264
AATCGCTC	-0.136
GATCGTCA	-0.0203
GGTTTATA	0.073
AAGAGCAG	-0.233
ACTCGGAT	0.268
AAGCTATG	-0.0842

Sequence	PBM E-score
TCGCTCCA	-0.138
GCACAACA	-0.135
ACCACTGC	-0.268
GGTCGCTA	-0.191
AGGACGCA	-0.171
CCCCGCGG	0.213
ACTTGGTG	-0.185
ACAGCGTG	-0.0222
CCGGTGTC	0.165
AGAGAACT	-0.0146
CAAGTCGA	-0.0271
AGCCCGAA	0.1
CGCACGAA	0.134
GACTTCAA	-0.212
CCAAAGAC	0.0568
ATAACCAG	0.136
ATCGCCAG	-0.127
AAGCGTAG	-0.144
AATGAGAT	0.127
TCCTCCGA	0.0166
ATATCAGA	0.239
GTAGATAA	0.17
CGTGTTTC	0.0466
TCGCCGAA	0.316
ACACAAGT	-0.0749

As entered above:
CCCCGCGG – PBM E-score: 0.213
AGCCCGAA – PBM E-score: 0.1
ACTTGGTG – PBM E-score: -0.185
ATAACCAG – PBM E-score: 0.136

Remaining list, next part.

Sequence	PBM E-score
TAAGTCCA	-0.00497
CCAGATGC	-0.103
ATTCTCTA	-0.0085
GACGCCCC	-0.205
CGCAAGAC	-0.012
GCGGGATA	0.0399
AGGAGACG	-0.26
ATACATAA	0.164
GCCATATA	0.037
CCACACAG	-0.073
CTTAAGTA	-0.0115
CCAATTCA	-0.067
GGTAAATA	0.175
ACGGAGGG	-0.0949
CCTGTACA	0.13
AGTTACCA	0.0704
CATGTGCA	-0.208
AGCATGGC	-0.15
GCTAGACC	-0.229
CATAGAAA	0.247
GTTACGTA	-0.143
ATGCAGGA	-0.302
AGCGATCC	-0.0185
GCTCTGGA	0.0226
AGCTCCCT	-0.317

Sequence	PBM E-score
CAGGCATG	-0.0502
AACGATGT	0.13
CAGCGACG	-0.112
TCAAGGCA	-0.203
GCAATGGC	-0.185
CCTCGGAG	0.277
AGCCAGAA	-0.0683
AGACAGTC	-0.102
AACTGAAG	0.061
CAATATTC	0.0849
ATGCGGGG	-0.188
CCAGGAAC	-0.242
CTCATTTA	0.134
AGGTCCAA	-0.0891
CAGGATAA	-0.0581
AACGGATT	0.343
ACCGATAG	-0.0489
CCGGACCG	0.353
TACAAAGA	0.264
AGCAATCC	-0.0121
GCTTGAAC	0.234
CCGGCGGA	0.369
